Among the data in PMC12320831, “Synthesis and Biological Evaluation of New Chalcogen Semicarbazone (S, Se) and Their Azole Derivatives against Chagas Disease” (Journal of Medicinal Chemistry, 2024) are SITc values, retold here.

This series deals with T. cruzi CAI/72 strain. In words: Antiparasitic activity in C2C12 cells infected with T. cruzi CAI/72 (image-based assay). The conditions noted are these: ratio between CC50 C2C12 and EC50 Tc CAI/72. It counts as cell-based. On the procedure:
Antiparasitic activity and cytotoxicity of compounds were determined as described before (da Silva et al., Boudreau et al.). Mouse myoblasts cell line C2C12 (ATCCCRL-1772), were maintained in high glucose (4.5 g/L glucose) Dulbecco’s modified Eagle’s medium (DMEM Gibco), supplemented with 1% penicillin–streptomycin 10,000 U/mL (Gibco) and 5% fetal bovine serum (FBS, Sigma-Aldrich) at 37 °C with 5% CO2. parasites (CAI/72 strain, DTU TcI) were maintained by weekly coinfection with C2C12 cells. For all activity assays, C2C12 cells were infected at a 10:1 parasite-to-cell ratio with culture-derived trypomastigotes, which were harvested from the supernatant of infected C2C12 cells. After adding compounds to 384-well black clear-bottom plates (Greiner cat. no. 781091), trypomastigotes (7000 parasites/well) and C2C12 cells (700 cells/well) were seeded in a total volume of 50 μL of DMEM per well in the 384-well plates. Compounds were first tested at 10 μM. […] Plates were imaged with the automated ImageXpress MicroXL microscope (Molecular Devices) and analyzed by MetaXpress software (Molecular Devices) using a custom module optimized for this assay. Infection levels (parasites per host cell) were normalized to the positive control (40 μM BNZ) and negative control (DMSO). Antiparasitic activity (EC50) ± standard deviation (SD) and host cell cytotoxicity (C2C12 viability) values were determined from the DRC using Prism software (GraphPad Software, La Jolla, CA). Every assay has three biological replicates, each in triplicates (n = 9 data points).

In the case of `O=C(Cn1ccnc1[N+](=O)[O-])NCc1ccccc1` [BZ, Benznidazole, reference compound], the SITc is over 6.91.
Still for that read-out and setting: as for `CN1CCN(C(=O)N[C@@H](Cc2ccccc2)C(=O)N[C@H](/C=C/S(=O)(=O)c2ccccc2)CCc2ccccc2)CC1` [Compound K777, reference compound], the figure is over 218.98.
Take `C/C(Cc1cccc(Cl)c1)=N\NC(N)=S` [Compound S1m, (E)-2-(1-(3-Chlorophenyl)propan-2-ylidene)hydrazine-1-carbothioamide]: the SITc is over 3.42.
Regarding `C/C(=N\NC(N)=[Se])c1ccc(Br)cc1` [Se1f, (E)-2-(1-(4-Bromophenyl)ethylidene)hydrazine-1-carboselenoamide], the SITc was over 13.00. Moreover, the SITc result (listed as Se 1f) is listed as “higher than 10”.
On to `COc1cccc(/C(C)=N/Nc2nc(C)c[se]2)c1.Cl` [Se2g, (E)-2-(2-(1-(3-Methoxyphenyl)ethylidene)hydrazineyl)-4-methyl-1,3-selenazole Hydrochloride], for which the SITc is over 3.75.
Turning to `C/C(=N\Nc1nc(C)c[se]1)c1cccc([N+](=O)[O-])c1.Cl` [Se2h, (E)-4-Methyl-2-(2-(1-(3-nitrophenyl)ethylidene)hydrazineyl)-1,3-selenazole Hydrochloride], the SITc is given as over 32.47. The SITc entry (listed as Se 2h) is “higher than 10”.
As for `C/C(=N\Nc1nc(C)c[se]1)c1cccc(Cl)c1.Cl` [Se2i, (E)-2-(2-(1-(3-Chlorophenyl)ethylidene)hydrazineyl)-4-methyl-1,3-selenazole Hydrochloride], the SITc is reported as over 18.98. Further, the SITc entry (listed as Se 2i) is given as “higher than 10”.
For the compound `C/C(=N\Nc1nc(C)c[se]1)c1ccsc1.Cl` [Se2l, (E)-4-Methyl-2-(2-(1-(thiophen-3-yl)ethylidene)hydrazineyl)-1,3-selenazole Hydrochloride], the SITc is recorded as over 2.68.
